Conditions in all cases: yeast three-hybrid, YBZ-1, SC-Leu-His + 0.5 mM 3-AT, 4 days
Test [1] deals with T1, PUM1 PUF domain R2-AFW N899A + Y900F + Q903W (UniProt Q14671).
T1 sequence: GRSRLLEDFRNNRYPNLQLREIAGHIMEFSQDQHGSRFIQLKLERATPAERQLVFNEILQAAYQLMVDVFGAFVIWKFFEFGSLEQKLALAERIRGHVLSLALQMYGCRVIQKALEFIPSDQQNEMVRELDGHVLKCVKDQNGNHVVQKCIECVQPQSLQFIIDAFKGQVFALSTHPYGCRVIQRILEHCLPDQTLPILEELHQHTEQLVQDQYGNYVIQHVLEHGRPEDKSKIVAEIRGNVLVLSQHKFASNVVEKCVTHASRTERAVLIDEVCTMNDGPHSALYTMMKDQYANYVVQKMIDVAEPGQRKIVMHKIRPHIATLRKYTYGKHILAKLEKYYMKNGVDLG

Test [2] concerns the target T2, PUM1 PUF domain R2-AKP N899A + Y900K + Q903P (UniProt Q14671).
T2 sequence: T1 sequence with F73K, W76P

Test [3] addresses T3, PUM1 PUF domain R2-ARP N899A + Y900R + Q903P (UniProt Q14671).
T3 sequence: T1 sequence with F73R, W76P

The target of test [4] is T4, PUM1 PUF domain R2-CFP N899C + Y900F + Q903P (UniProt Q14671).
T4 sequence: T1 sequence with A72C, W76P

For test [5], the target named is T5, PUM1 PUF domain R2-DRQ N899D + Y900R (UniProt Q14671).
T5 sequence: T1 sequence with A72D, F73R, W76Q

Test [6] has as its target T6, PUM1 PUF domain R2-EWG N899E + Y900W + Q903G (UniProt Q14671).
T6 sequence: T1 sequence with A72E, F73W, W76G

Test [7] addresses T7, PUM1 PUF domain R2-KRG N899K + Y900R + Q903G (UniProt Q14671).
T7 sequence: T1 sequence with A72K, F73R, W76G

In test [8] the target is T8, PUM1 PUF domain R2-SWG N899S + Y900W + Q903G (UniProt Q14671).
T8 sequence: T1 sequence with A72S, F73W, W76G

For test [9], the target named is T9, PUM1 PUF domain R5-RDK C1007R + R1008D + Q1011K (UniProt Q14671).
T9 sequence: T1 sequence with A72N, F73Y, W76Q, C180R, R181D, Q184K

Test [10] deals with T10, PUM1 PUF domain R5-SEQ C1007S + R1008E (UniProt Q14671).
T10 sequence: T1 sequence with A72N, F73Y, W76Q, C180S, R181E

The target of test [11] is T11, PUM1 PUF domain R5-SER C1007S + R1008E + Q1011R (UniProt Q14671).
T11 sequence: T1 sequence with A72N, F73Y, W76Q, C180S, R181E, Q184R

Test [12] concerns the target T12, PUM1 PUF domain R5-SNG C1007S + R1008N + Q1011G (UniProt Q14671).
T12 sequence: T1 sequence with A72N, F73Y, W76Q, C180S, R181N, Q184G

Test [13] deals with T13, PUM1 PUF domain R5-SPR C1007S + R1008P + Q1011R (UniProt Q14671).
T13 sequence: T1 sequence with A72N, F73Y, W76Q, C180S, R181P, Q184R

The target of test [14] is T14, PUM1 PUF domain R5-WGF C1007W + R1008G + Q1011F (UniProt Q14671).
T14 sequence: T1 sequence with A72N, F73Y, W76Q, C180W, R181G, Q184F

Test [15] deals with T15, PUM1 PUF domain R6-VYH N1043V + Q1047H (UniProt Q14671).
T15 sequence: T1 sequence with A72N, F73Y, W76Q, N216V, Q220H

Test [16] addresses T16, PUM1 PUF domain R6-YRI N1043Y + Y1044R + Q1047I (UniProt Q14671).
T16 sequence: T1 sequence with A72N, F73Y, W76Q, N216Y, Y217R, Q220I

Test [17] addresses T17, PUM1 PUF domain R7-IMR S1079I + N1080M + E1083R (UniProt Q14671).
T17 sequence: T1 sequence with A72N, F73Y, W76Q, S252I, N253M, E256R

The target in test [18] is T18, PUM1 PUF domain R8-KQR N1122K + Y1123Q + Q1126R (UniProt Q14671).
T18 sequence: T1 sequence with A72N, F73Y, W76Q, N295K, Y296Q, Q299R

For test [19], the target named is T19, PUM1 PUF domain R8-KRY N1122K + Y1123R + Q1126Y (UniProt Q14671).
T19 sequence: T1 sequence with A72N, F73Y, W76Q, N295K, Y296R, Q299Y

Test [20] deals with T20, PUM1 PUF domain R8-MHP N1122M + Y1123H + Q1126P (UniProt Q14671).
T20 sequence: T1 sequence with A72N, F73Y, W76Q, N295M, Y296H, Q299P

Changes are numbered by the printed parent chain. The list shows a part of the results. At the low end of the ranking, values are background and their order means little. A value given as a limit tells only on which side of the number the result lay.

As for “GGCUAGAACUAGUGGAUCCCCCGGCGCCCGGCGGCUCGAGCCCGGGUAAGUGUAAAUAGUCUGCAUGCCGCCGGGCGCCAUGCCUGCAGGUCGACUCUAGAAAACAUG”, the binding signal (log2 enrichment (interaction score)) is under -8.19 in test [1]; under -8 in test [2]; under -8.68 in [3]; -7.64 in test [4]; -6.31 in test [5]; -7.1 in test [6]. Also, the binding signal (log2 enrichment (interaction score)) in test [7] is -7.33; in [8] it was -5.83; in [9], -5.95; in test [10], under -5.67; in [11] it was under -9.16; in test [12], under -7.79. The binding signal (log2 enrichment (interaction score)) in test [13] is under -6; in test [14], under -7.07; in [15] it was under -6.93; in [16], -6.06; in test [17], -6.68; in [18], under -6.78. Moreover, the figures for the binding signal (log2 enrichment (interaction score)) in test [19] and in [20] were under -5.98 and under -6.11, respectively.

Source of the values: article PMC8384837.
